Laboratory results from PubChem BioAssay AID687031 (Broad Institute, 2013).
The whole screen tested about 1,400 compounds, of which about 50 (4%) were called active.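 How the source made its calls: active means fitted curve reaches 30% CPE protection at or below the top valid dose, with every test run called active; inconclusive means test runs disagree, some active and some not; inactive means every test run inactive, including effects in the wrong direction.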 This is one part of the list. Measured potencies and affinities stand elsewhere.

Experiment: Dengue virus 2 cytopathic effect protection, dose response, BHK-21 cells, ATP luminescence, cherry-pick (AID 687031);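 further: 0% = infected DMSO wells and 100% = uninfected cell wells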
Details: BHK-21 DENV2 CPE protection, 5 d; at 19.5 µM (top of the series) unless noted

CPE protection (higher = active), inactive:
CCOC(=O)C1=CN(CC)S(=O)(=O)NC1c1cccc(OC)c1 (stereo not given) 4.62%
Cc1cccnc1NC(=O)c1ccc(S(=O)(=O)N2CCCC2)cc1 7.33%
Cc1ccc(OCc2nnc(SCc3cc(=O)[nH]c4ccccc34)n2-c2ccccc2)cc1 -15.6%
COc1ccc(CN2CCC(C(=O)NC(c3ccc4c(c3)OCO4)c3ccccn3)CC2)cc1 (stereo not given) 4.46%
O=C(NCc1cccc(F)c1)[C@@H]1[C@@H](CO)[C@@H]2Cn3c(cccc3=O)[C@H]1N2C(=O)c1cnccn1 3.92%
CC(C)CC1NC(=O)c2ccccc2-n2c1nc1ccccc1c2=O (stereo not given) -9.6%
O=C(O)C(Cc1ccc(Cl)cc1)NS(=O)(=O)c1ccc(Cl)cc1 (stereo not given) -8.16%
CC(=O)NC(Cc1ccccc1)C(=O)O (stereo not given) -1%
COC(=O)C1=C(C)N(C)C(=NCc2ccc(OC)cc2)NC1c1ccc(F)cc1 (stereo not given) 16.6%
Cc1cccc(N2CCN(C(C(=O)NCc3ccccc3)c3ccc(F)cc3)CC2)c1C (stereo not given) -8.34%
CCN1CCN(c2ccc(S(=O)(=O)N3CCCCC3)cc2NC(=O)c2ccc(C)c(C)c2)CC1 -4.78%
N#Cc1ccc(-c2ccc(OCC(=O)NN=Cc3ccncc3)cc2)cc1 -4.99%
Cn1cnc(S(=O)(=O)N[C@@H]2CC[C@H](CC(=O)NCC3CCCCC3)O[C@@H]2CO)c1 7.9%
O=C(C1CCCN(S(=O)(=O)c2cccnc2)C1)N1CCN(c2ccccn2)CC1 (stereo not given) -5.94%
Cc1ccc(/C=N/NC(=O)c2ccc(-n3cnnn3)cc2)cc1 -4.6%
COCCNC(=O)C1(C)CCN(C(=O)c2ccc3sccc3c2)C1 (stereo not given) -18.1%
O=C(Oc1ccccc1)c1ccccc1C(=O)Oc1ccccc1 21.1%
O=C(c1cc(C2CC2)on1)N1CCN(C(c2ccccc2)c2ccccc2)CC1 -7.12%
Cc1ccccc1N1Cc2ccccc2C1=O 6.73%
C[C@@H](NC(=O)[C@@H]1[C@@H](CO)[C@@H]2Cn3c(cccc3=O)[C@@H]2N1CC1CCCC1)c1ccccc1 -38.4%
Cc1nc2ccn(Cc3ccccc3)c(=O)c2cc1C(=O)N1CCN(c2ccccc2)CC1 -15.3%
O=C(NCCc1ccncc1)[C@@H]1[C@@H](CO)[C@@H]2Cn3c(ccc(-c4cccc(F)c4)c3=O)[C@H]1N2 11.4%
COc1ccc(N2CCN(CC(O)COc3ccc(F)cc3)CC2)cc1 (stereo not given) -9.59%
COc1ccc(NC(=O)[C@@H]2CC=C[C@@H]3CCN(Cc4ccccc4)C(=O)[C@@H]32)cc1 0.873%
COc1ccc(CN2C(=O)CCC2(C)c2nnnn2Cc2ccccc2)cc1 (stereo not given) -2.96%
CCC(=O)N1CC2(C1)CN(C(=O)Nc1ccc(F)cc1)[C@H](CO)c1c2c2ccc(OC)cc2n1C 5.8%
COc1ccc(CCNC2CC(=O)N(C3CCCCC3)C2=O)cc1OC (stereo not given) 5.64%
Cc1ccc(CN2CCCOCCS2(=O)=O)cc1 24.4%
CS(=O)(=O)N1CCc2cc(C(=O)N3CCN(c4ccccc4)CC3)ccc21 14.1%
O=C1CCCC(c2ccccc2)N1 (stereo not given) -8.5%
CN(CC(=O)Nc1ccccc1Cl)C(=O)COC(=O)c1cccs1 -9.78%
COc1ccc2c3c(n(C)c2c1)[C@H](CO)N(Cc1ccccc1F)CC31CCN(C(C)=O)CC1 -20.8%
CN1CCC2CC1c1cc(-c3ccc(C(F)(F)F)cc3)ccc12 (stereo not given) -7.74%
COc1ccccc1CN1CC(C(=O)NCc2nccn2C)CCC1=O (stereo not given) -3.12%
COc1ccc(CCC(C)NCc2ccc(F)cc2)cc1 (stereo not given) 18.5%
C[C@@H]1CCCCO[C@H](CN(C)C(=O)NC2CCCCC2)[C@@H](C)CN([C@H](C)CO)C(=O)c2cc(NC(=O)CCCCCC(=O)Nc3ccccc3N)ccc2O1 -29.3% [at 21 µM]
Cc1cc(=O)oc2c(C)c(OC(C)C(=O)NC(Cc3c[nH]c4ccc(O)cc34)C(=O)O)ccc12 (stereo not given) -4.33%
CNC(=O)C1(C)C=CC2(CCCCC2)N1C(=O)OC (stereo not given) 1.07%
COc1ccc2c(=O)cc(-c3ccncc3)oc2c1OC -1.7%
COc1cc(C(=O)OCCCN2CCOCC2)cc(OC)c1OC -14.2%
CCCCn1nc(C(=O)Nc2ccc3c(c2)OCO3)c2ccccc2c1=O -6.73%
O=C(Nc1ccn(CC(=O)N2CCN(c3ccccn3)CC2)c(=O)n1)OCc1ccccc1 -15.4%
CN1CCN(CCOc2ccc(-c3ccccc3)cc2)CC1 -14.5%
COc1cccc(N2CCN(C(=O)c3cccc(NC4=NC5CS(=O)(=O)CC5S4)c3)CC2)c1 (stereo not given) 9.98%
Cc1cnc(NC(=O)C2CC(=O)N(c3cccc(Cl)c3)C2)s1 (stereo not given) 4.01%
CCCn1c(NCc2ccc(N(C)C)cc2)nc2ccccc21 -13.2%
CN1C(c2ccccc2)CCOS1(=O)=O (stereo not given) -17.1%
Cc1ccc(Cl)cc1N1CCN(CC(O)COC(C)C)CC1 (stereo not given) 4.86%
CCc1ccc(O)c(CNCCNCc2cc(CC)ccc2O)c1 -15.9%
O=c1cc(CSc2nnc(-c3ccccc3)o2)c2ccccc2[nH]1 -8.63%
O=C(c1ccccc1Br)N1CCN(Cc2ccc3c(c2)OCO3)CC1 12%
COc1ccc(NC(=O)COC(=O)c2c(C)noc2C)cc1Cl 11.1%
COc1ccc(NC(=O)C(OC(=O)c2cnc(C)cn2)c2ccccc2)cc1Cl (stereo not given) -0.469%
C[C@H](CO)N1C[C@H](C)[C@@H](CN(C)C(=O)Nc2cccc3ccccc23)OCCCC[C@H](C)Oc2ccc(NC(=O)NC3CCCCC3)cc2C1=O 3.1%
Cc1ccccc1S(=O)(=O)NC(=O)C1(C)CCN1C(=O)CC(c1ccccc1)c1ccccc1 (stereo not given) 8.27%
C[C@@H]1CCCCO[C@H](CN(C)C(=O)Nc2ccc(C(F)(F)F)cc2)[C@H](C)CN([C@@H](C)CO)C(=O)c2cc(NS(=O)(=O)c3ccc(F)cc3)ccc2O1 15.1%
CCn1c(SCc2cccc(F)c2)nnc1-c1ccncc1 -13.2%
COc1cc(OC)cc(C(=O)NCCC(c2ccccc2)c2ccccc2)c1 -16.4%
O=C(NCc1ccc(Cl)c(Cl)c1)c1cc(C2CCCCN2C(=O)OCCF)on1 (stereo not given) 13.3%
OC[C@@H]1[C@@H](c2ccccc2)C2(CN(Cc3nccs3)C2)N1Cc1cccnc1 -2.78%
COc1ccc(C2(C)CC(C)(C)Nc3ccccc32)cc1 (stereo not given) 24.1%
Cc1ccccc1CN1C(=O)CN(S(C)(=O)=O)CC1(C)C(=O)NCc1ccccc1 (stereo not given) -24.2%
CCN(Cc1ccc(OC)c(COC)c1)CC1CCCN(CCc2cccc(OC)c2)C1 (stereo not given) 27.2%
COc1ccc(C(=O)NCCNc2nc3c(C)cccc3cc2C#N)cc1OC -3.71%
Cc1ccc(OCC(=O)NC2CCSc3ccccc32)cc1 (stereo not given) -2.69%
COc1ccc2c(c1)OC[C@H]1[C@H]2N2C(=O)c3cc(OC)ccc3NC(=O)[C@@]2(C)[C@H]1c1ccccc1 -19.2%
CCN(C)C1CN(Cc2cn(Cc3ccc(F)cc3)nn2)S(=O)(=O)C1 (stereo not given) -3.5%
CCOC(=O)Nc1ccc(N2CCOCC2)c(S(=O)(=O)N2CCOCC2)c1 10.6%
Cc1ccc(C(=O)Nc2ccc(CN3CCCCC3)cc2)c(C)c1 11.5%
CCOc1ccc(Oc2nc(NCC(C)C)nc(OC)n2)nn1 -24.7%
CC1CCCCN1CCCNC(=O)c1ccc2nc(N3CCCCC3)sc2c1 (stereo not given) 16.9%
N#CC[C@H](c1ccccc1)N1CCN(Cc2ccccc2)CCC1=O 27.4%
CC1(C(=O)NS(C)(=O)=O)CCN1C(=O)C/C=C/c1ccccc1 (stereo not given) 8.98%
COc1cccc(NC(=O)COc2cccc3c2CCNC3=O)c1 -1.74%
CCc1c(C2CC2)ncn1Cc1cccc(-c2ccccc2)c1 22.2%
CC(C)CNC(=O)C1(C)CCCN1C(=O)c1cncc(Br)c1 (stereo not given) 3.91%
CO[C@@H]1CN(C)C(=O)c2ccc(NC(=O)Nc3cccc(F)c3)cc2OC[C@@H](C)N(C(C)=O)C[C@H]1C -13%
O=C1CCN(CCc2ccccc2)CCN1[C@H](COc1ccccc1)c1ccccc1 -22.3%
CC(C)(O)C#Cc1ccc([C@@H]2[C@@H](CO)N3CCCCN(C(=O)c4ccc(F)cc4)C[C@@H]23)cc1 -12.7%
CSCCC(N=C1NS(=O)(=O)c2ccccc21)C(=O)NCCc1ccccc1 (stereo not given) 18.1%
C[C@@H]1CCCCO[C@H](CN(C)S(=O)(=O)c2ccccc2)[C@@H](C)CN([C@@H](C)CO)C(=O)c2cc(NC(=O)CCCN(C)C)ccc2O1 5.11%
COc1ccc(/C=N/NC(=O)c2nc(-c3ccccc3)n(-c3ccccc3)n2)cc1OC 6.48%
Fc1ccccc1-c1nc(-c2ccc(-c3nn[nH]n3)cc2)no1 -17%
COc1ccc(N(CC(=O)N2CCN(C)CC2)S(=O)(=O)c2cc(C)ccc2OC)cc1Cl 2.48%
CC(=O)N[C@@H]1CC[C@H](CCNC(=O)C2CCCC2)O[C@H]1CO -7.17%

In the list so far, these have a Cl atom.
CPE protection (higher = active), inactive:
O=C(O)C(Cc1ccc(Cl)cc1)NS(=O)(=O)c1ccc(Cl)cc1 (stereo not given) -8.16%
CN(CC(=O)Nc1ccccc1Cl)C(=O)COC(=O)c1cccs1 -9.78%
Cc1cnc(NC(=O)C2CC(=O)N(c3cccc(Cl)c3)C2)s1 (stereo not given) 4.01%
Cc1ccc(Cl)cc1N1CCN(CC(O)COC(C)C)CC1 (stereo not given) 4.86%
COc1ccc(NC(=O)COC(=O)c2c(C)noc2C)cc1Cl 11.1%
COc1ccc(NC(=O)C(OC(=O)c2cnc(C)cn2)c2ccccc2)cc1Cl (stereo not given) -0.469%
O=C(NCc1ccc(Cl)c(Cl)c1)c1cc(C2CCCCN2C(=O)OCCF)on1 (stereo not given) 13.3%
COc1ccc(N(CC(=O)N2CCN(C)CC2)S(=O)(=O)c2cc(C)ccc2OC)cc1Cl 2.48%

Reprinted at random: two compounds from above
CPE protection (higher = active), inactive:
O=C1CCN(CCc2ccccc2)CCN1[C@H](COc1ccccc1)c1ccccc1 -22.3%
Cc1nc2ccn(Cc3ccccc3)c(=O)c2cc1C(=O)N1CCN(c2ccccc2)CC1 -15.3%
